Data: the supplement of paper PMC12819154, “High-throughput peptide-centric local stability assay extends protein–ligand identification to membrane proteins, tissues and bacteria” (Nature Structural & Molecular Biology, 2025)
This is one part of the list. Small differences around the control level are noise.

By UniProt entry, the sequences of proteins in these tests, tags left out. Where a name states a change or a piece, a line headed by the entry shows the natural chain unless it says otherwise.
UniProt Q5BKU9: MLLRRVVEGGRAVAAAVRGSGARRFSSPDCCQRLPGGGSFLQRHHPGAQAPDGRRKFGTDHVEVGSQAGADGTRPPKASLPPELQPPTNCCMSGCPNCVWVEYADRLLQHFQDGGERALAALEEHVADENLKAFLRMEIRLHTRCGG
UniProt Q3YBR2: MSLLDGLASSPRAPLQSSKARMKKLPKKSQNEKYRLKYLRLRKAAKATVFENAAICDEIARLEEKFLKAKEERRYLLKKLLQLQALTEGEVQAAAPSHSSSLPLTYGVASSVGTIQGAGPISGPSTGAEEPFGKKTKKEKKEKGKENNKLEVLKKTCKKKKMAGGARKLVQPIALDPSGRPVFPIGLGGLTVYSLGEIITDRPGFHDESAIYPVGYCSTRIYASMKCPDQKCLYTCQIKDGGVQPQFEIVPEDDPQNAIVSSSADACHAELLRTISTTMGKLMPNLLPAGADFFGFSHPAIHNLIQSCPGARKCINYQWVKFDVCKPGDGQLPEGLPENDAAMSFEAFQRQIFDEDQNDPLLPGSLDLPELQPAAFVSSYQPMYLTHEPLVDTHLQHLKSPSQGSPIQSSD
UniProt Q53TN4: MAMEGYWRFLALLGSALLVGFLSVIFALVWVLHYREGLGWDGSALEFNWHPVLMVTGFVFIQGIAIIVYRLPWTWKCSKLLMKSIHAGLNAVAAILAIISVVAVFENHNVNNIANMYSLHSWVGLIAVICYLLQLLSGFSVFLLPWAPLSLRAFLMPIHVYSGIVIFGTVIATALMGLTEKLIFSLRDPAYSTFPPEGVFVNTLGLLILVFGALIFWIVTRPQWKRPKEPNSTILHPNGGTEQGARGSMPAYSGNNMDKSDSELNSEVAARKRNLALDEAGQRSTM
UniProt Q5HYI8: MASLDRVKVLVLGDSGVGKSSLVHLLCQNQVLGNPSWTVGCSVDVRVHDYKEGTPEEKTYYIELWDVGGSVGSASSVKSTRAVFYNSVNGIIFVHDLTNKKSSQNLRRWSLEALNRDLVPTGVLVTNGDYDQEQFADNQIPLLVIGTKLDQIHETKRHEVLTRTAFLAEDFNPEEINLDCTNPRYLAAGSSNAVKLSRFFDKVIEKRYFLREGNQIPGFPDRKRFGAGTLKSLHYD
UniProt Q5SVQ8: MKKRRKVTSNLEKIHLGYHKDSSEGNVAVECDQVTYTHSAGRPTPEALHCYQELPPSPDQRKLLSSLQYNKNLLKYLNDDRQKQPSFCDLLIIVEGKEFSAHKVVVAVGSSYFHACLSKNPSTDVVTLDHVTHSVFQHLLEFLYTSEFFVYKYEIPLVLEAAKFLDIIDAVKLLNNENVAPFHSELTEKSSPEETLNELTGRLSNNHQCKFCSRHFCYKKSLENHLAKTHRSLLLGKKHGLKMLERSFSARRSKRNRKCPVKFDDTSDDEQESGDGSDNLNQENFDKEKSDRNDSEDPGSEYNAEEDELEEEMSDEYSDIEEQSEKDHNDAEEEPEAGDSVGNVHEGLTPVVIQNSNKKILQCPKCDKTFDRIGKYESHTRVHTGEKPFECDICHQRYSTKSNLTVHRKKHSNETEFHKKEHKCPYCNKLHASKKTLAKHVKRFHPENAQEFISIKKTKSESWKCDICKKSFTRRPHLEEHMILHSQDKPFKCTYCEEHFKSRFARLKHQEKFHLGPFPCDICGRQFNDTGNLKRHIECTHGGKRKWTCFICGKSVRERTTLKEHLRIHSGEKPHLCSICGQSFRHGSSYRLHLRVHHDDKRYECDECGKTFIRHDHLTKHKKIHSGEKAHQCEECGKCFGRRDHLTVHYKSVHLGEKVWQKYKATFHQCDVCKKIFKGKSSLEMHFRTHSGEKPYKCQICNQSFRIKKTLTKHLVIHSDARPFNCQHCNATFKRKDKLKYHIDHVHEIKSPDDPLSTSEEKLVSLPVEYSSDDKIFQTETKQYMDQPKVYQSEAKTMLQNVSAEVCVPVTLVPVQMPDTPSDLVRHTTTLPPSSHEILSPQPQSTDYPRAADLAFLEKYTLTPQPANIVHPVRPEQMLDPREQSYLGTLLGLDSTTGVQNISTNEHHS
UniProt Q49A88: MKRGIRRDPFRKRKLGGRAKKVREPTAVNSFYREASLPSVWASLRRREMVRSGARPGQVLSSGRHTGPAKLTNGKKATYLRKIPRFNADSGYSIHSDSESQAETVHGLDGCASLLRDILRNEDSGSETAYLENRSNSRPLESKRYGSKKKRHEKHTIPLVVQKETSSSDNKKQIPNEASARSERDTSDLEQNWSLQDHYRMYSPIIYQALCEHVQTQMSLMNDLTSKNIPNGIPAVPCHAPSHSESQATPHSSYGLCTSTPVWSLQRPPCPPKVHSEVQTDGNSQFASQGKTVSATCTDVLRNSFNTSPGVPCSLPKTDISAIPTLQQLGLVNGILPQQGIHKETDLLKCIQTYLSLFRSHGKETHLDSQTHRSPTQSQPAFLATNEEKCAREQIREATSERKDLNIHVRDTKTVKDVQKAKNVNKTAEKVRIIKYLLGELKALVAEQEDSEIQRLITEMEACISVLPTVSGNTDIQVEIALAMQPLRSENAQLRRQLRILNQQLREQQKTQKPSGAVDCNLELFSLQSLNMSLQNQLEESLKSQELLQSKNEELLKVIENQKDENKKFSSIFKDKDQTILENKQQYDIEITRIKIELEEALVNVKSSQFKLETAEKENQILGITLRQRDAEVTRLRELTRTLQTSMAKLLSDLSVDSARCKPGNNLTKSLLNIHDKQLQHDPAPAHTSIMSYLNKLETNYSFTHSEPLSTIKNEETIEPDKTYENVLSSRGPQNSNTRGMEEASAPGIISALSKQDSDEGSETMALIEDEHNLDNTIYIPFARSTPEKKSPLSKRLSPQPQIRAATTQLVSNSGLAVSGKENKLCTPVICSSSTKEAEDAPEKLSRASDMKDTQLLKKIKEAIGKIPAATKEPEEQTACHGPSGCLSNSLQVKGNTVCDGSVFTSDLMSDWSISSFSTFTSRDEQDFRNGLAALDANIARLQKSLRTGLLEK
UniProt Q53EL6: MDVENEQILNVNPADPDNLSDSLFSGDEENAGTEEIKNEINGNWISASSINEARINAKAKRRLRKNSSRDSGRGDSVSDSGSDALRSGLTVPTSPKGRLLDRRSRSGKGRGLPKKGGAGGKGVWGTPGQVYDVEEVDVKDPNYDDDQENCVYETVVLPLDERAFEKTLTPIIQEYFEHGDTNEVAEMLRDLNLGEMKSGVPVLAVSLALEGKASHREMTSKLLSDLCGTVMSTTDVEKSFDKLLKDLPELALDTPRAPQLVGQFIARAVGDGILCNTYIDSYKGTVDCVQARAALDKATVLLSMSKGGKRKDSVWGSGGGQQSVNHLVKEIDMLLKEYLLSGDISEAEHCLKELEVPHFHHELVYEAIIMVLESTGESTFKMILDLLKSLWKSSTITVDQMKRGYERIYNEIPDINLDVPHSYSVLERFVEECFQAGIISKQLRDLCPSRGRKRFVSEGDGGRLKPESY
UniProt Q5TC82: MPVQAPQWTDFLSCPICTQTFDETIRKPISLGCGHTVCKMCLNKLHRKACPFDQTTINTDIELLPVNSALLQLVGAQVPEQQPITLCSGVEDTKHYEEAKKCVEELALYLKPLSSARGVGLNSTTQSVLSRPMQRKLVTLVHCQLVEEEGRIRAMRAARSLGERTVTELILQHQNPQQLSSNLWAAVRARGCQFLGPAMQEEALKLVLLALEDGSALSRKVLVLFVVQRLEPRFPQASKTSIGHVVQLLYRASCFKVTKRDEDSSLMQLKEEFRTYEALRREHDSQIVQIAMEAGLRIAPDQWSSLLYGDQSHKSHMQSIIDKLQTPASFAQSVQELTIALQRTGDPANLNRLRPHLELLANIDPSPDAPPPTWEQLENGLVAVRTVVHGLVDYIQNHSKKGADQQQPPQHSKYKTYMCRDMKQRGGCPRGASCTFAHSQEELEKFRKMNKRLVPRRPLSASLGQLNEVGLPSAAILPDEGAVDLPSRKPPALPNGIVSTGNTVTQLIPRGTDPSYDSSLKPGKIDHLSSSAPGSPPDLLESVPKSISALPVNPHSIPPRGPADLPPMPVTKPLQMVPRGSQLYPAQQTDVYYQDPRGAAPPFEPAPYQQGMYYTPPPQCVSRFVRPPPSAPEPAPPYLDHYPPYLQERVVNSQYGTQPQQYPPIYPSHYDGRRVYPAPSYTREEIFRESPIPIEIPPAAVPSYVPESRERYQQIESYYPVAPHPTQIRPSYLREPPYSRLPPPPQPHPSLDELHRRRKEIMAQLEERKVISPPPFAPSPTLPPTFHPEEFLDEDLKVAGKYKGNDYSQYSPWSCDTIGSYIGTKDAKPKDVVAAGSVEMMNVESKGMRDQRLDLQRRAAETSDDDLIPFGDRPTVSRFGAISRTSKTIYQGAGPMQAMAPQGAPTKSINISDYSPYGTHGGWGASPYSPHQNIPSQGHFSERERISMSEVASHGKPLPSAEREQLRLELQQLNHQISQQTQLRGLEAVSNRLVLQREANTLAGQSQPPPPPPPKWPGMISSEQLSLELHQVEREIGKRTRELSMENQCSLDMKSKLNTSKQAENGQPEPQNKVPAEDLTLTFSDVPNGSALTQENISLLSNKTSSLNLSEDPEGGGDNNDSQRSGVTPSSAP
UniProt Q4VC31: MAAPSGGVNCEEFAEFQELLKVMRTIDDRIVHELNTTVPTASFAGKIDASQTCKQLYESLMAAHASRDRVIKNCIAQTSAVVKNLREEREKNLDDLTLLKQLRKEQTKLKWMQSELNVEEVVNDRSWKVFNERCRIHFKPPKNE
UniProt Q5T5X7: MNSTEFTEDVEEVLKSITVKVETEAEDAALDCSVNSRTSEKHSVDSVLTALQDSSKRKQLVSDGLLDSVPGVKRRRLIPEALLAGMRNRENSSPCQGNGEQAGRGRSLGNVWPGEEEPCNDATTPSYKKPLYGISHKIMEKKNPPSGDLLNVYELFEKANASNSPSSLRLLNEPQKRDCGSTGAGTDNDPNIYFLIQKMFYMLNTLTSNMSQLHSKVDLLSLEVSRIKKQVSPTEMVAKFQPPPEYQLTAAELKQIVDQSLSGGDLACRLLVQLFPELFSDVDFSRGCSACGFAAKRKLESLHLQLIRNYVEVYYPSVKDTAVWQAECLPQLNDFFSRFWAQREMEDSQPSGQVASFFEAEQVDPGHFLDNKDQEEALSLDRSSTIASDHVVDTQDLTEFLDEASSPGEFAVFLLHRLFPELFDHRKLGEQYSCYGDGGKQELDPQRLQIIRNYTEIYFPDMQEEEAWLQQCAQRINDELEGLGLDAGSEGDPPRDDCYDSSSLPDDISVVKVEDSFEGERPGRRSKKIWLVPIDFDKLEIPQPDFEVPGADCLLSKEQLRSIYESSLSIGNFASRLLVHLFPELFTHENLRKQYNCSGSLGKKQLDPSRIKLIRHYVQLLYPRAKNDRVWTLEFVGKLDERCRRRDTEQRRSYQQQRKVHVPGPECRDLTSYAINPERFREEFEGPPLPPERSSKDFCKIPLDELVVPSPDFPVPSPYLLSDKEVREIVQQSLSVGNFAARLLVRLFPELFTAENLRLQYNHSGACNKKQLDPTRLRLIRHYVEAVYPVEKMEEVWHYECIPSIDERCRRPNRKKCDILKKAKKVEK
UniProt Q5BJD5: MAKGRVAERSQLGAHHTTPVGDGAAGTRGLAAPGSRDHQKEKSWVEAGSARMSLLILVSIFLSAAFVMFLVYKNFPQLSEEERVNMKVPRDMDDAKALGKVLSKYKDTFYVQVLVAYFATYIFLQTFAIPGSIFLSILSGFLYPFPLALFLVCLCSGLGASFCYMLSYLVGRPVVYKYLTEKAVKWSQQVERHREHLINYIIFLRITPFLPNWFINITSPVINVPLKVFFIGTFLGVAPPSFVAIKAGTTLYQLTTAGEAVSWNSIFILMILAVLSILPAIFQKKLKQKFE
UniProt Q3V5L5: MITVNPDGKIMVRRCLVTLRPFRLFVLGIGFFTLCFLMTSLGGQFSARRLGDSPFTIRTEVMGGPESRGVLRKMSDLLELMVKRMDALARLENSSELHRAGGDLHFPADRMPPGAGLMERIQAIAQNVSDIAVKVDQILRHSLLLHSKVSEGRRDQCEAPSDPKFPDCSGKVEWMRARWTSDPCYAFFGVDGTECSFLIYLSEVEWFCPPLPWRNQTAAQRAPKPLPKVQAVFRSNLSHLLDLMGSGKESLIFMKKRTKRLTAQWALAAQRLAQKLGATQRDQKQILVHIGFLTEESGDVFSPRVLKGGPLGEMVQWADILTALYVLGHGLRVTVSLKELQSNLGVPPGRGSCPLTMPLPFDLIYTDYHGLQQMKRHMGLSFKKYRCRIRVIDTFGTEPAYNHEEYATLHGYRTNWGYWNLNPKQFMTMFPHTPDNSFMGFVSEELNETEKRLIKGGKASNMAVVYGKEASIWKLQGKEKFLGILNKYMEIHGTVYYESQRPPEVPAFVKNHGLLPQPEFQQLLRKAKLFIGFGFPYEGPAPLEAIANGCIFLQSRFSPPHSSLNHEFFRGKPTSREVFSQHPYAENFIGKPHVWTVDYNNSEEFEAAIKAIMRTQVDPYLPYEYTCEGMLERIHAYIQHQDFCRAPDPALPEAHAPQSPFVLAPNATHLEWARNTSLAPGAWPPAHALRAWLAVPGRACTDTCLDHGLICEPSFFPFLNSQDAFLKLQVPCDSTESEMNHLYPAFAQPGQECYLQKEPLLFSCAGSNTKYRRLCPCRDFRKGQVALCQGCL

Each target was assayed with Cc1nc(Nc2ncc(C(=O)Nc3c(C)cccc3Cl)s2)cc(N2CCN(CCO)CC2)n1 [dasatinib] (assay: log2 fold change of tryptic peptide abundance, ligand vs vehicle (limited proteolysis) (log2 ratio); higher = more trypsin-susceptible (destabilized)). Settings: ligand concentration: 5 uM; sample: K562 cleared lysate.
In the case of “TMEM63B (peptide sequence: SNGRPPTAAAVPK, peptide start residue: 755) (UniProt Q5T3F8)”, the log2 fold change is reported as 0.469.
“OXLD1 (peptide sequence: ALAALEEHVADENLK, peptide start residue: 118) (UniProt Q5BKU9)” was tested, and the log2 fold change was 0.0837.
“UniProt Q562F6 (peptide sequence: CTPFYFKEPSLR, peptide start residue: 1249)” gave a log2 fold change of 0.486.
“UniProt Q460N3 (peptide sequence: RRETEEK, peptide start residue: 1155)” showed a log2 fold change of -0.0648.
For “UniProt Q3YBR2 (peptide sequence: CLYTCQIK, peptide start residue: 232)”, the log2 fold change was -0.2.
In the case of “GPAT3 (peptide sequence: DIFKEEQQK, peptide start residue: 413) (UniProt Q53EU6)”, the log2 fold change is reported as -0.257.
For “ZC3H12A (peptide sequence: LGAQASPGSR, peptide start residue: 381) (UniProt Q5D1E8)”, the log2 fold change was -0.2.
Work on “CYBRD1 (peptide sequence: NLALDEAGQR, peptide start residue: 274) (UniProt Q53TN4)” yielded a log2 fold change of -0.0642.
“ARHGAP15 (peptide sequence: QGTGAVQMR, peptide start residue: 19) (UniProt Q53QZ3)” showed a log2 fold change of -0.413.
For “PARP14 (peptide sequence: GLTHNLLK, peptide start residue: 616) (UniProt Q460N5)”, the log2 fold change was -0.232.
“RABL3 (peptide sequence: EGNQIPGFPDR, peptide start residue: 212) (UniProt Q5HYI8)” gave a log2 fold change of 0.0726.
“VPS26B (peptide sequence: KSMSHQAAIASQR, peptide start residue: 301) (UniProt Q4G0F5)” gave a log2 fold change of -0.161.
For “MRPL51 (peptide sequence: AMFGVYDNIGILGNFEKHPK, peptide start residue: 52) (UniProt Q4U2R6)”, the log2 fold change was -0.0157.
“C6ORF134 (peptide sequence: AQNLSAPITSASR, peptide start residue: 57) (UniProt Q5SQI0)” showed a log2 fold change of -0.435.
With “PSMG4 (peptide sequence: IKEEMEAFPEKF, peptide start residue: 112) (UniProt Q5JS54)” the log2 fold change was 0.172.
“FLYWCH1 (peptide sequence: SILGLGQARPLEFLR, peptide start residue: 261) (UniProt Q4VC44)” showed a log2 fold change of 0.513.
“UniProt Q5SVQ8 (peptide sequence: KKHSNETEFHK, peptide start residue: 409)” was tested, and the log2 fold change was 0.227.
“RPRD2 (peptide sequence: HFGQAPSK, peptide start residue: 1025) (UniProt Q5VT52)” was tested, and the log2 fold change was 0.567.
For “UniProt Q5TCS8 (peptide sequence: KEEEEARK, peptide start residue: 699)”, the log2 fold change was 0.248.
Target “UniProt Q49A88 (peptide sequence: DTSDLEQNWSLQDHYR, peptide start residue: 185)” has a log2 fold change of -0.376.
In the case of “PDCD4 (peptide sequence: DLPELALDTPR, peptide start residue: 246) (UniProt Q53EL6)”, the log2 fold change is reported as 0.0999.
“SAMD9 (peptide sequence: KTAIEDSIQTSK, peptide start residue: 76) (UniProt Q5K651)” showed a log2 fold change of 0.48.
“KLHL26 (peptide sequence: ALHCYDPVADQWEFKAPMSEPR, peptide start residue: 477) (UniProt Q53HC5)” showed a log2 fold change of -0.326.
“SFT2D3 (peptide sequence: QLQEYLAQGK, peptide start residue: 7) (UniProt Q587I9)” showed a log2 fold change of 0.0426.
In the case of “RC3H1 (peptide sequence: GASCTFAHSQEELEK, peptide start residue: 431) (UniProt Q5TC82)”, the log2 fold change is reported as 0.344.
In the case of “CCDC58 (peptide sequence: VIKNCIAQTSAVVK, peptide start residue: 70) (UniProt Q4VC31)”, the log2 fold change is reported as 0.167.
“BEND3 (peptide sequence: ANASNSPSSLR, peptide start residue: 159) (UniProt Q5T5X7)” showed a log2 fold change of -0.798.
“UniProt Q5MIZ7 (peptide sequence: ESEDKENLPK, peptide start residue: 756)” was tested, and the log2 fold change was -0.156.
“WDR44 (peptide sequence: ETENTAYK, peptide start residue: 38) (UniProt Q5JSH3)” was tested, and the log2 fold change was -0.292.
In the case of “UniProt Q5EBL2 (peptide sequence: HVHTGERPHACGVCGK, peptide start residue: 558)”, the log2 fold change is reported as 0.416.
In the case of “TMEM41B (peptide sequence: SQLGAHHTTPVGDGAAGTR, peptide start residue: 10) (UniProt Q5BJD5)”, the log2 fold change is reported as 0.0691.
“CEP85L (peptide sequence: AQGKEPNLSLLLGIR, peptide start residue: 737) (UniProt Q5SZL2)” showed a log2 fold change of -0.215.
In the case of “SMUG1 (peptide sequence: QVQLLGVR, peptide start residue: 201) (UniProt Q53HV7)”, the log2 fold change is reported as -0.183.
For “UniProt Q5CZ79 (peptide sequence: LAAAIGK, peptide start residue: 613)”, the log2 fold change was 0.00695.
“CROCC (peptide sequence: QALLQAQLEEQLRDK, peptide start residue: 360) (UniProt Q5TZA2)” gave a log2 fold change of 0.154.
Work on “UniProt Q4AE62 (peptide sequence: NFNSECDTHCGLDTAR, peptide start residue: 217)” yielded a log2 fold change of -0.185.
For “UniProt Q5T2N8 (peptide sequence: LAQFDYGR, peptide start residue: 554)”, the log2 fold change was -0.425.
For “UniProt Q3V5L5 (peptide sequence: ESLIFMK, peptide start residue: 340)”, the log2 fold change was -0.15.
